Assay results reported in PubChem BioAssay AID652054 (National Center for Advancing Translational Sciences (NCATS), 2013).
Among all 360,000 compounds or so, about 9,100 (2.5%) were called active. The inconclusive results got no clear call from the source; some entries with a clear call stand among them for comparison. Cut-off read from the data, not from the text of the source: active = max response below about -50%; inconclusive = no clear call, values can overlap the other calls; inactive = above that.

By UniProt entry, the sequences of proteins in these tests, tags left out.
UniProt P35462, whole entry, looked up: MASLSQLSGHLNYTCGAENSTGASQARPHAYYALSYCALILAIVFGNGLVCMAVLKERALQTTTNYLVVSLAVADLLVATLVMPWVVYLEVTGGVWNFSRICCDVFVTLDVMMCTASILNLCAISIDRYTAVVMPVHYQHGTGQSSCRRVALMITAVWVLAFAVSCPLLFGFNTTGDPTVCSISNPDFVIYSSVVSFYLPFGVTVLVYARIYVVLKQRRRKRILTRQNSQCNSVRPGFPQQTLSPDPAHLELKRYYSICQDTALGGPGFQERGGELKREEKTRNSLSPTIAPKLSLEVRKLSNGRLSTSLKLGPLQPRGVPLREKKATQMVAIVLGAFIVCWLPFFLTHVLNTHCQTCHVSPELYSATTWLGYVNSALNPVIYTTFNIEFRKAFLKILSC

These molecules were tested against D(3) dopamine receptor (Homo sapiens) (UniProt P35462) (assay: qHTS of D3 Dopamine Receptor Antagonist: qHTS). Conditions: D3R cells, DiscoveRx beta-arrestin luminescence, antagonist mode; active compounds read low.
Outline: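 Cells plated overnight at 1500 cells/well, then exposed to library compounds with dopamine controls for 90 minutes at 37 degrees C. DiscoveRx reagent added for 30–60 minutes at room temperature; luminescence read, quantitative HTS format.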
% is set by controls: 0 for no effect and ±100 for the full control effect.

Max response, negative = inhibition, inactive:
COC(=O)c1ccc(C)c(NC(=O)CCSc2ccc(Cl)cc2)c1 0.526%, COc1ccc(OC)c(S(=O)(=O)N2CCN(CC(O)COc3ccccc3)CC2)c1 (stereo not drawn) 10.2%, NC(N)=N/N=C/c1ccc(Cl)c(Cl)c1 -19.4%, Nc1nc(SCc2ccccc2)c2ncn(C3CCCO3)c2n1 (stereo not drawn) 2.42%, CC(CCc1ccccc1)NC(=O)CN1CCSc2ccccc21 (stereo not drawn) 5.57%, CCC(C(=O)N1CCN(C(=O)c2ccco2)CC1)n1sc2ccccc2c1=O (stereo not drawn) 9.56%, Cc1ccc(S(=O)(=O)Nc2cccc(-c3ccc(N4CCCCCC4)nn3)c2)cc1C -1.24%, COc1ccc(CC(=O)N/N=C(\C)c2cccnc2)cc1 -3.78%, COc1cc2c3c(c1)C(C)CC(C)(C)N3C(=O)C2=O (stereo not drawn) 0%, Cc1ccc(OCCCCn2ccnc2)c([N+](=O)[O-])c1 -20.4%, NC(=O)c1ccccc1Nc1nc2nc3ccccc3c(=O)n2cc1Br 6.31%, CCC1CCc2c(sc(NC(=O)C3CC=CCC3C(=O)O)c2C#N)C1 (stereo not drawn) 0%, CC(C)n1cc(CN2CCC(Oc3ccc(C(=O)N4CCCCC4)cc3)CC2)cn1 -14.9%, O=S(=O)(NCCc1ccccc1)c1cccc(S(=O)(=O)N2CCOCC2)c1 -5.48%, CCc1ccc(-c2cc3c(=O)n(CC(=O)NCCCN4CCC(Cc5ccccc5)CC4)nc(C)n3n2)cc1 -15.1%, O=C(Nc1ccc(Br)cc1)N1CCc2ccccc2C1 -11.9%, CC(CC(=O)Nc1ccc2c(c1)c(=O)n(C)n2Cc1ccc(F)cc1)C(F)(F)F (stereo not drawn) 28%, O=C(COC(=O)c1ccccc1O)NCCCc1ccccc1 -29.1%, NC(=O)C(=O)N/N=C/c1c2ccccc2cc2ccccc12 -8.55%, CC(/C=N/NC(=O)c1cc(-c2ccccc2)nc2ccccc12)=C\c1ccco1 -3.78%, COc1ccc(N2CCN(c3ccc(N4C(=O)CC(C)C4=O)cc3[N+](=O)[O-])CC2)cc1 (stereo not drawn) 9.41%, O=c1c2c(ncn1CCO)nc1n2CCC1 -2.93%, CCCN(CC(=O)Nc1ccc(F)c(F)c1F)CC(=O)Nc1c(Cl)cccc1Cl 25%, COc1ccccc1C(=O)Nc1ccc(Cc2ccncc2)cc1 -26.1%, NC(=O)c1c(NC(=O)c2ccc(F)cc2)sc2c1CCC2 17.3%, COc1ccc(-c2cc(C(=O)NCc3ccco3)c3ccccc3n2)cc1OC 16.7%, COC(=O)CC1=NN(c2ccccc2)C(=O)/C1=C\c1ccc(OC)cc1 -3.22%, COc1cc(OC)cc(-c2nc3ccccc3c(=O)n2OC(=O)c2ccc(C)c(C)c2)c1 109%

Max response, negative = inhibition, inconclusive:
Clc1ccc(CSc2nnc(-c3cccnc3)o2)cc1 -31.4%, CC(C)(C)NC(=O)C(c1ccncc1)N(Cc1ccco1)C(=O)c1ccc(-c2ccccc2)[nH]1 (stereo not drawn) -31.8%, C=CCn1c(SCC(=O)N(CCOC)c2c(N)n(CCCC)c(=O)[nH]c2=O)nnc1-c1ccc(Cl)cc1 -49.4%, CN(c1ccc(O)cc1)c1nc(O)c(C2=c3ccccc3=NC2=O)s1 -41.9%, CN(C)CCOc1cccc(Cl)c1 -47.7%, O=C1CCCC(O)=C1C=NCCc1ccccc1 -39.6%, Cc1cc(/C=N/Nc2ccc([N+](=O)[O-])cn2)c(C)n1-c1ccccc1 -32.7%, CC1(C)CCc2cc(CN3CCN(c4ccccn4)CC3)ccc2O1 -36%, Cc1cccc(-c2noc(CCC(=O)NCc3ccccc3)n2)c1 -34.7%, CNC(=S)N1CCN(c2ccccc2OC)CC1 -41.7%, CCN(CC)CCCNC(=S)N1CCN(c2nc3ccccc3n2CC)CC1 -45.4%, CC(c1ccccc1C(=O)O)c1cc(F)cc2ccccc12 (stereo not drawn) -35.4%, S=c1[nH]nc(-c2ccccn2)n1/N=C/c1cccs1 -42%, Cc1ccc(CN(CC(=O)N/N=C/c2ccco2)S(=O)(=O)c2ccc(C)cc2)cc1 -41.1%, Cc1ccc(S(=O)(=O)c2c(C)cc(C)nc2Oc2cccc(C)c2C)cc1 -48.6%, COc1cc(/C=C2\C(=O)N(c3ccccc3)N=C2C)ccc1Oc1ccc([N+](=O)[O-])cc1[N+](=O)[O-] -49.2%, NC(=O)CC(NC(=O)Cc1ccc(Br)cc1)c1ccc(N2CCCCCCC2)c([N+](=O)[O-])c1 (stereo not drawn) -42.2%, CCCCCc1cc(=O)oc2c(C(CCN3CCCC(C)C3)c3cc(OC)c(OC)c(OC)c3)c(OC)cc(OC)c12 (stereo not drawn) -48.1%, CCOC(=O)c1c(S(=O)(=O)NCC2CCN(Cc3cccc(F)c3)CC2)c(C)n(C)c1C -38.4%, CCOc1cc(C(=S)N2CCCC2)ccc1OC -34.6%, O=C1OC(c2ccc(F)cc2)CC1CN1CCOCC1 (stereo not drawn) -36%, COc1ccc(C2CC(c3cccs3)=NN2C(=O)CCl)cc1OC (stereo not drawn) -39.7%, CCN1CCN(S(=O)(=O)c2ccc(Cl)c(C(=O)N(C)Cc3ccc(Cl)cc3Cl)c2)CC1 -33.1%, Cc1nc2ccccc2c(=O)n1/N=C/c1ccc(O)cc1 -34.6%, O=C1CC(c2ccccc2)CC(O)=C1C=Nc1ccc(Cl)cc1 (stereo not drawn) -31.4%, Cc1ccc(C(=O)CC2(O)C(=O)N(Cc3ccccc3)c3ccccc32)o1 (stereo not drawn) -46.7%, O=C1/C(=C\Nc2ccccc2)CCN1c1ncccn1 -34.4%, CC1(C(=O)N/N=C/c2c(F)c(F)c(F)c(F)c2F)CC1(Cl)Cl (stereo not drawn) -41%, Cc1ccc(-n2c(=S)[nH]c3c(oc4ccccc43)c2=O)cc1 -32.5%, Cn1nnnc1SCC(=O)NCCc1ccc(Cl)cc1 -37.2%, CC(=O)N1CCN(S(=O)(=O)c2ccc(S(=O)(=O)NC3CC3)cc2)CC1 -30.4%, CN1CCN(c2ccc(CNC(=O)C3(C)Cc4c(-c5ccc6c(c5)OCO6)ccnc4O3)cc2)CC1 (stereo not drawn) -36.6%, Cc1cc(C(=O)Nc2nc(-c3ccccn3)cs2)ccc1[N+](=O)[O-] -34.1%, Cc1cc(Cn2nc(-c3ccccc3)cc2C(=O)NCc2cccc(C(F)(F)F)c2)on1 -31.4%, CCOC(=O)C(CC)n1cnc2c(nnn2-c2cccc(OC)c2)c1=O (stereo not drawn) -44.6%, CCC[C@@H]1CCCC/C=C\CCCC(=O)OCCN1C(=O)OC(C)(C)C -37.5%, Cn1cc(CN2CCC(C(=O)NC(c3ccc(-c4ccccc4)cc3)c3cnccn3)CC2)c2ccccc21 (stereo not drawn) -48.4%, COC(=O)c1ccc2c(c1)C(C)(C)C(/C=C/c1ccc(O)cc1)=[N+]2C -36.9%, Cn1nccc1C(=O)NC1CC(C)(C)Cc2c1cnn2-c1ccc(F)cc1 (stereo not drawn) -31%, O=C1NC(=Nc2ccc(Cl)cc2)SC1Cc1cccc(Cl)c1Cl (stereo not drawn) -46.7%, Cc1nc(C(F)(F)F)ccc1C(=O)N1CCC1(C)C(=O)NCc1ccc(Cl)cc1 (stereo not drawn) -44.7%, CCCCCN(C(=O)NC(=O)Nc1cccc(C)c1C)S(C)(=O)=O -49%, COc1ccc(Nc2nc(N3CCCCC3)c3ccccc3n2)cc1 -46.6%, Cc1cc(C)c(C)c(S(=O)(=O)ON2C(=O)c3ccccc3C2=O)c1C -42.7%, CCOc1ccc(-n2c(SCc3ccc(C(=O)OC)o3)nc3c(c2=O)SCC3)cc1 -33%

Max response, negative = inhibition, active:
COc1cc(N=Nc2ccccc2C(=O)O)ccc1O -57.9%, O=C(NNC(=O)c1ccc2nonc2c1)Nc1ccc(Cl)cc1 -69.1%, CCCn1c(O)c(N=NC(=O)CNC(=O)/C=C/c2ccc(OC)cc2)c2ccccc21 -50%, Cc1coc2c(C)c3oc(=O)c(CCC(=O)NCCCn4ccnc4)c(C)c3cc12 -69.3%, Cc1ccc(S(=O)(=O)N/N=C/c2c(F)cccc2Cl)cc1 -87.3%, Cc1cn([C@H]2C[C@H](O)[C@@H](CNCc3ccc(-c4cc(Cl)ccc4C(F)(F)F)o3)O2)c(=O)[nH]c1=O -75.1%, c1ccc(CN2CCN(CCN3CCn4c3nc3ccccc34)CC2)cc1 -71.8%, COc1ccccc1N1CCN(CC(O)COc2ccc3c(c2)CCC3)CC1 (stereo not drawn) -66.7%, CN(C)CCNc1ncnc2oc(-c3ccccc3)c(-c3ccccc3)c12 -60.7%, Nn1c(-c2cccc(Br)c2)n[nH]c1=S -84.8%, O=C(O)Cn1c(SCc2ccccc2)nc2ccccc21 -53.4%, O=C(CSc1nc2c(sc3ccccc32)c(=O)n1CCCN1CCCC1)NCC1CCCO1 (stereo not drawn) -56.9%, O=C(C1CCN(Cc2ccccc2)CC1)N1CCN(C/C=C/c2ccccc2)CC1 -54.2%, Cc1ccc(-c2noc(C3CCCN(C(=O)c4c(F)cccc4F)C3)n2)cc1 (stereo not drawn) -70.1%, O=[N+]([O-])c1ccc(S(=O)(=O)NCC(c2ccco2)N2CCc3ccccc3C2)cc1 (stereo not drawn) -57.1%
